Data from PubChem BioAssay (NCATS).
Inconclusive means that the source gave no clear call. Such entries were picked first, then a sample of the others. Potencies beside an inconclusive call are fits to weak or partial responses and may not hold up. The source made the active and inactive calls. Calls come from the whole dose curve; as a rule, active = well fitted cell-killing curve with a large enough effect; inconclusive = small, poorly fitted or top-dose-only effect, or effect the other way; inactive = no such curve, though single readings can be large or run the other way. Where a SMILES comes first, the peptide text is derived from it. [ ]: non-standard residue; d: D form. The star is where a group is joined. Sta = CC(C)C[C@H](N)[C@@H](O)CC(=O)O; Isovaleryl = CC(C)CC(=O)*
Potency is the fitted concentration of half-maximal effect.

Experiment: Quantitative High-Throughput drug screen in 47 multiple myeloma cell lines against the NCATS MIPE library collection: KMS34_JCRB cell viability assay (AID 1918985); note: nearly all actives have a fitted effect of over 40% in size
Details: KMS34 myeloma viability, CellTiter-Glo ATP luminescence, 48 h; viability, percent of control: at 45.8 µM (top of the series)
Description: PI: Beverly A. Mock Ph.D.
Laboratory of Cancer Biology and Genetics,
Center for Cancer Research, National Cancer Institute,
National Institute of Health, Bethesda, Maryland
Drug resistance and disease progression are common in multiple myeloma (MM) patients, underscoring the need for new therapeutic combinations. […] We hypothesized that effective combinations would reduce MYC expression and enhance p16 activity. […] These preclinical data identify potentially useful drug combinations for evaluation in drug-resistant MM and reveal potential mechanisms of combined drug sensitivity.
Described herein is the primary MIPE qHTS used to cherrypick compounds. Validated compounds were then further tested for potential synergistic activiy.
[1] Peat TJ, Gaikwad SM, Dubois W, Gyabaah-Kessie N, Zhang S, Gorjifard S, Phyo Z, Andres M, Hughitt VK, Simpson RM, Miller MA, Girvin AT, Taylor A, Williams D, D'Antonio N, Zhang Y, Rajagopalan A, Flietner E, Wilson K, Zhang X, Shinn P, Klumpp-Thomas C, McKnight C, Itkin Z, Chen L, Kazandijian D, Zhang J, Michalowski AM, Simmons JK, Keats J, Thomas CJ, Mock BA. Drug combinations identified by high-throughput screening promote cell cycle transition and upregulate Smad pathways in myeloma. Cancer Lett. 2023 Aug 1;568:216284. doi: 10.1016/j.canlet.2023.216284. Epub 2023 Jun 24. PMID: 37356470; PMCID: PMC10408729.
SEQUENCE No. (e.g., 1, 2, 3, etc.); […] (e.g., Cells, Incubation, Reagent, etc.); VALUE and DESCRIPTION.
1; Cells; 5 uL; white, solid bottom 1536-well Greiner assay plate.
2; Compounds; 23 nL; Kalypsis pin tool (Wako USA) equipped with a 1536-well pin head to transfer to the assay plates.
3; Incubation; 48 hours; 37C incubation.
4; Reagent;5uL; CellTiter Glo (Promega).
5; Detector; 425V; Luminescence; Viewlux PerkinElmer.
NOTES (numbers refer to Sequence numbers above)
1. The cell-based screening methods employed in this study were like those previously published. Briefly, the corresponding myeloma cell lines were screened in 1,536-well plates with 500 cells, 5-uL per well for inhibition of cell viability (assessed by measuring ATP levels with CellTiterGlo).
2. NCATS MIPE 4.0 library of approved and investigational drugs were added using the Kalypsis pin tool. Wells treated with DMSO only for 100% viability and media only for 0% viability were used as controls.
3. The assay plates were covered and incubated for 48 hours in a 37C, 5% CO2 incubator with controlled humidity.
4. After 48 hours, CellTilter-GloTM luminescent substrate mix (Promega) reagent was added to the assay plate and plates we incubated for 5 min at room temperature.
5. Signal was measured as median relative luminescence units on a ViewLux (PerkinElmer) multiplate reader.
[1] Heske CM, Davis MI, Baumgart JT, Wilson K, Gormally MV, Chen L, Zhang X, Ceribelli M, Duveau DY, Guha R, Ferrer M, Arnaldez FI, Ji J, Tran HL, Zhang Y, Mendoza A, Helman LJ, Thomas CJ. Matrix Screen Identifies Synergistic Combination of PARP Inhibitors and Nicotinamide Phosphoribosyltransferase (NAMPT) Inhibitors in Ewing Sarcoma. Clin Cancer Res. 2017 Dec 1;23(23):7301-7311. doi: 10.1158/1078-0432.CCR-17-1121. Epub 2017 Sep 12. PMID: 28899971; PMCID: PMC6636827.
With Cc1ccc(-n2[nH]c(C)c(N=Nc3cccc(-c4cccc(C(=O)O)c4)c3O)c2=O)cc1C the Potency was inconclusive: 16.6 µM [cytotoxic, partial curve]. In the case of COc1cc2nccc(Oc3ccc(NC(=O)Nc4ccc(F)cc4F)c(F)c3)c2cc1OC, the Potency is reported as inconclusive: 5.9 µM [cytotoxic, partial curve, poor fit]. With O=C(C=Cc1cccnc1)NCCCCC1CCN(C(=O)c2ccccc2)CC1 the Potency was active: 0.0166 µM. With Cn1c(=O)c(F)c(Nc2ccc(I)cc2F)c2c(=O)n(C[C@@H](O)CO)cnc21 the “viability, percent of control” value was inactive: 76.5%. In the case of Cc1nc2c([nH]1)CCN(C(=O)c1ccc(NC(=O)c3ccccc3-c3ccccc3)cc1)c1ccccc1-2, the Potency is reported as inconclusive: 26.4 µM [rising, partial curve, poor fit]. With O=P(O)(O)C(O)(Cn1ccnc1)P(=O)(O)O the Potency was inconclusive: 0.0091 µM [rising, full curve, poor fit]. For CC(C)CC(=O)N[C@H](C(=O)N[C@H](C(=O)N[C@@H](CC(C)C)[C@@H](O)CC(=O)N[C@@H](C)C(=O)N[C@@H](CC(C)C)[C@@H](O)CC(=O)O)C(C)C)C(C)C (Isovaleryl-VV[Sta]A[Sta]-OH), the Potency was inconclusive: 0.166 µM [rising, full curve, poor fit]. With CC1CCC(C(=O)N(c2cc(C#CC(C)(C)C)sc2C(=O)O)C2CCC(O)CC2)CC1 (stereo not given) the Potency was inconclusive: 33.2 µM [cytotoxic, single point]. In the case of NC(=O)[C@@H](CCC(F)(F)F)N(Cc1ccc(-c2ncon2)cc1F)S(=O)(=O)c1ccc(Cl)cc1, the Potency is reported as inconclusive: 0.0015 µM [cytotoxic, full curve, poor fit]. With CC1(C)C(=O)N(CCN2CCC(C(=O)c3ccc(F)cc3)CC2)c2ccccc21 the Potency was inconclusive: 33.2 µM [cytotoxic, single point]. For CCCC1OC2C[C@@H]3[C@H]4CCC5=CC(=O)C=C[C@]5(C)[C@H]4C(O)C[C@]3(C)[C@]2(C(=O)CO)O1 (stereo not given in full), the Potency was inconclusive: 6.62 µM [cytotoxic, partial curve, poor fit]. In the case of OC(CN1CCN(c2cccc(Cl)c2)CC1)C(c1ccccc1)c1ccccc1 (stereo not given), the Potency is reported as inconclusive: 0.0047 µM [rising, full curve, poor fit]. For N[C@H]1CN(c2c(F)cc3c(=O)c(C(=O)O)cn(C4C[C@@H]4F)c3c2Cl)CC12CC2 (stereo not given in full), the Potency was inconclusive: 16.6 µM [cytotoxic, partial curve, poor fit]. In the case of CC(C)(C)c1[nH]cnc1C=c1[nH]c(=O)c(=Cc2ccccc2)[nH]c1=O, the Potency is reported as inconclusive: 0.0096 µM [cytotoxic, partial curve, poor fit]. For O=C(O)c1nc(=O)[nH]c(=O)[nH]1, the “viability, percent of control” value was inactive: 104% [at 23.2 µM]. In the case of CC(COc1ccccc1)N(CCCl)Cc1ccccc1 (stereo not given), the “viability, percent of control” value is reported as inactive: 86.9%. For CC1(C)O[C@@H]2C[C@H]3[C@@H]4CCC5=CC(=O)C=C[C@]5(C)[C@@H]4[C@@H](O)C[C@]3(C)[C@]2(C(=O)CO)O1, the Potency was inconclusive: 0.0332 µM [cytotoxic, full curve, poor fit]. In the case of CCNc1cc(NC2CCC(O)CC2)nc(Nc2ccc3c(ccn3Cc3ccccc3)c2)n1 (stereo not given), the Potency is reported as inconclusive: 37.2 µM [cytotoxic, partial curve, poor fit]. In the case of CN1CCC(=C2c3ccccc3C=Cc3ccccc32)CC1, the Potency is reported as inconclusive: 20.9 µM [cytotoxic, partial curve, poor fit]. With O=C(NC(Cc1cc(=O)[nH]c2ccccc12)C(=O)O)c1ccc(Cl)cc1 (stereo not given) the Potency was inconclusive: 0.0021 µM [rising, full curve, poor fit]. In the case of CN(C)CCc1c[nH]c2ccc(Cn3cncn3)cc12, the “viability, percent of control” value is reported as inactive: 113%. With N=C1SC(=Cc2ccc(-c3ccc4c(c3)C(=O)NC4=O)o2)C(=O)N1c1ccc(Br)cc1 the Potency was active: 2.64 µM. With O=C(Nc1ccccc1Br)N[C@@H]1CCN(c2ccc(C(F)(F)F)cn2)C1 the “viability, percent of control” value was inactive: 97.6%. In the case of Cc1cc(C(=O)NOCCO)c(Nc2ccc(I)cc2F)n(C)c1=O, the Potency is reported as inconclusive: 0.0093 µM [cytotoxic, full curve, poor fit]. In the case of COc1ccc2c(Oc3ccc(NC(=O)c4c(C)n(CC(C)(C)O)n(-c5ccccc5)c4=O)nc3)ccnc2c1, the “viability, percent of control” value is reported as inactive: 89%. With CC[C@@H]([C@H](C)O)n1ncn(-c2ccc(N3CCN(c4ccc(OCC5CO[C@@](Cn6cncn6)(c6ccc(F)cc6F)C5)cc4)CC3)cc2)c1=O (stereo not given in full) the Potency was inconclusive: 20.9 µM [cytotoxic, partial curve, poor fit]. In the case of CC(C)C[C@H](CC(=O)O)C(=O)N[C@@H](Cc1c[nH]c2ccccc12)C(=O)N[C@@H](C)c1ccccc1, the “viability, percent of control” value is reported as inactive: 75%. With N#Cc1ccc(Oc2ccc3c(c2)COB3O)cc1 the Potency was inconclusive: 0.0026 µM [rising, full curve, poor fit]. In the case of O=c1[nH]cnc2c1ncn2[C@H]1CC[C@@H](CO)O1, the Potency is reported as inconclusive: 0.0264 µM [rising, full curve, poor fit]. In the case of CC(C)(C)NC(=O)Nc1cccc(Nc2ncc(F)c(NC(C)(C)CO)n2)c1, the Potency is reported as inconclusive: 23.5 µM [cytotoxic, partial curve, poor fit]. In the case of O=C(OCC#CCSc1nnc(-c2cccc3ccccc23)o1)c1cc2ccccc2s1, the Potency is reported as inconclusive: 2.35 µM [cytotoxic, full curve, poor fit]. In the case of C[C@H](NC(=O)Cc1cc(F)cc(F)c1)C(=O)N[C@H](C(=O)OC(C)(C)C)c1ccccc1, the Potency is reported as inconclusive: 29.6 µM [rising, single point]. In the case of CC(=O)OCC(=O)[C@@]12N=C(C)O[C@H]1C[C@H]1[C@@H]3CCC4=CC(=O)C=C[C@]4(C)[C@@H]3[C@@H](O)C[C@@]12C, the “viability, percent of control” value is reported as inactive: 75.7%. With Nc1nc2[nH]cc(CCc3ccc(C(=O)N[C@@H](CCC(=O)O)C(=O)O)cc3)c2c(=O)[nH]1 the Potency was inconclusive: 1.48 µM [cytotoxic, full curve, poor fit]. In the case of CN(C)CCC=C1c2ccccc2COc2ccc(CC(=O)O)cc21, the “viability, percent of control” value is reported as inactive: 90.1%. In the case of Cc1ccc(O)c(C(CCN(C(C)C)C(C)C)c2ccccc2)c1 (stereo not given), the Potency is reported as inconclusive: 2.64 µM [rising, full curve, poor fit]. For CC(=O)SCC(Cc1ccccc1)C(=O)NCC(=O)OCc1ccccc1 (stereo not given), the Potency was active: 2.35 µM. For CO[C@H]1C[C@@H]2CC[C@@H](C)[C@@](O)(O2)C(=O)C(=O)N2CCCC[C@@H]2C(=O)O[C@H]([C@@H](C)C[C@@H]2CC[C@H](O)[C@H](OC)C2)CC(=O)[C@H](C)C=C(C)[C@@H](O)[C@@H](OC)C(=O)[C@H](C)C[C@H](C)C=CC=CC=C1C, the Potency was inconclusive: 33.2 µM [cytotoxic, single point]. For O=C(c1cncc(Br)c1)N1CCC(N2CCCC2)CC1, the Potency was inconclusive: 20.9 µM [cytotoxic, single point]. With CNC(=O)[C@H](Cc1ccccc1)NC(=O)[C@H](CC(C)C)[C@H](CSc1cccs1)C(=O)NO the Potency was inconclusive: 16.6 µM [cytotoxic, partial curve].
